The source of these data is patent US20100168443A1 (UNIVERSITY OF VIRGINIA PATENT FOUNDATION, priority 2006, published 2010).

A short description of data set [1]: general procedure: Fmoc solid-phase peptide synthesis; SynPhase PA Rink Amide Linker derivatised lanterns (Mimotopes); DIC/HOBT. The following applies: whole synthesis, analytical HPLC-MS, scale of the general procedure 8 umol.
Data set [2] in a line: general procedure: Fmoc solid-phase peptide synthesis; trityl resin; DIC/HOBT. The following applies: whole synthesis, scale 0.3 mmol.

As for Bombesin, the “crude purity (method not given)” value in data set [1] is 69%.

On to “H-Proψ[CH2O]Gluψ[CH2O]Glnψ[CH2O]Glyψ[CH2O]Tyrψ[CH2O]Asn-NH2”, for which, in data set [2], the crude mass was found to be 48 mg, the crude yield was determined as 25% yield, the isolated mass amounted to 19 mg and the isolated yield turned out to be 10% yield.

For the substance Neurokinin A, in data set [1], the “crude purity (method not given)” value was found to be 84%.

Consider Neurokinin B, for which the “crude purity (method not given)” value in data set [1] was found to be 79%.

Turning to Somatostatin, in data set [1], the “crude purity (method not given)” value is listed as 98%.

On to Substance P, for which the “crude purity (method not given)” value in data set [1] stood at 72%.
